Values from PubChem BioAssay AID504793 (Drosophila RNAi Screening Center, 2011).
The screen tested about 23,000 reagents; shown is a random part of those with a known target gene and a result. Of all reagents, 62 (0.27%) were called active. 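Calls come from follow-up tests whose scores are not deposited, so confirmed genes may have low counts here; counts are not normalised per plate.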 The raw values are shown without normalisation. A plus sign joins genes that one reagent is predicted to hit.

- Purpose: 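Whole-genome screen for parts of the DNA damage checkpoint at G2/M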 (primary screen)
- Cells: Drosophila S2R+ cells
- Reagent: long dsRNA against Drosophila genes, about 0.25 µg dsRNA per well
- Time to read-out: 4 days of dsRNA, then 4 hours of drug before read-out
- Challenge: doxorubicin 0.5 µM for 4 hours to cause double-strand breaks, in cells also given a low, harmless dose of dsRNA against nbs to sensitise the assay
- Measured: 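Mitotic index as the number of phospho-histone H3-positive cells in each well following doxorubicin, given as raw counts without normalisation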
- Direction: mitotic cells: higher = more cells in mitosis, weaker G2 arrest
- Rule for the call: 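a call needs confirmation in secondary tests, with other dsRNAs and a check of mitotic timing without damage, not just a high primary count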
- Calls: active = confirmed in follow-up tests; inactive = not confirmed

mitotic cells, replicate 1 | call | predicted target | dsRNA
8 | inactive | CG6142 | DRSC15976
24 | inactive | r-l | DRSC17042
14 | inactive | r-l | DRSC22784
8 | inactive | CG10874 | DRSC00297
2 | inactive | CG10874 | DRSC26108
8 | inactive | Vti1b | DRSC16283
8 | inactive | Vti1b | DRSC16284
6 | inactive | su(r) | DRSC18705
2 | inactive | CG31100 | DRSC14453
4 | inactive | CG31100 | DRSC14455
7 | inactive | CG31286 | DRSC26727
6 | inactive | NimC1 | DRSC01879
10 | inactive | CG5250 | DRSC15752
7 | inactive | fest | DRSC07349
3 | inactive | fest | DRSC24249
7 | inactive | RpL31 | DRSC06716
1 | inactive | RpL31 | DRSC29618
2 | inactive | Cda5 | DRSC00529
4 | inactive | Cda5 | DRSC00532
11 | inactive | Cda5 | DRSC21330
8 | inactive | CG11131 | DRSC11636
3 | inactive | CG11131 | DRSC21736
10 | inactive | CG11131 | DRSC28565
2 | inactive | CG31675 | DRSC01825
10 | inactive | CG31675 | DRSC26340
11 | inactive | Pgk | DRSC23340
7 | inactive | Pgk | DRSC26595
2 | inactive | Tbc1d15-17 | DRSC00313
8 | inactive | Tbc1d15-17 | DRSC28813
7 | inactive | Def | DRSC07398
14 | inactive | Hexo2 | DRSC18671
12 | inactive | CG42323 | DRSC19629
5 | inactive | CG42323 | DRSC21397

Continued, starting with the last 2 of the part before.
mitotic cells, replicate 1 | call | predicted target | dsRNA
12 | inactive | CG42323 | DRSC19629
5 | inactive | CG42323 | DRSC21397
9 | inactive | nSMase | DRSC08237
8 | inactive | CG12923 | DRSC06237
4 | inactive | Fatp3 | DRSC04366
3 | inactive | Fatp3 | DRSC29135
4 | inactive | RabGGTa | DRSC12189
7 | inactive | ImpE2 | DRSC08665
11 | inactive | ImpE2 | DRSC28588
2 | inactive | Hus1-like | DRSC12353
3 | inactive | CG7607 | DRSC10889
17 | inactive | Rab40 | DRSC19820
5 | inactive | Phk-3 | DRSC04547
2 | inactive | opm | DRSC20141
5 | inactive | opm | DRSC22135
– | inactive | opm | DRSC29575
5 | inactive | His2Av | DRSC16702
12 | inactive | Dab | DRSC11140
10 | inactive | ey | DRSC17173
13 | inactive | ey | DRSC26309
9 | inactive | AIMP2 | DRSC09877
6 | inactive | AIMP2 | DRSC26797
5 | inactive | InR | DRSC16717
9 | inactive | InR | DRSC36685
17 | inactive | mod(mdg4) + pre-mod(mdg4)-Z + pre-mod(mdg4)-T | DRSC13477
8 | inactive | mod(mdg4) + pre-mod(mdg4)-Z + pre-mod(mdg4)-T | DRSC17001
8 | inactive | Ugt302E1 | DRSC15635
9 | inactive | Ugt302E1 | DRSC29326
13 | inactive | yl | DRSC20387
3 | inactive | yl | DRSC29027
11 | inactive | ltl | DRSC10206
10 | inactive | ltl | DRSC10870
9 | inactive | CG8910 | DRSC07414
7 | inactive | CG8910 | DRSC28591
4 | inactive | CG14082 | DRSC10086
5 | inactive | CG14082 | DRSC25472
9 | inactive | CG33298 | DRSC02210
8 | inactive | CG33298 | DRSC02672
16 | inactive | awd | DRSC16906
8 | inactive | egh | DRSC18771
8 | inactive | egh | DRSC29898
6 | inactive | CG17917 | DRSC12570
13 | inactive | CG13223 | DRSC06344
6 | inactive | CG6163 | DRSC10595
8 | inactive | CG6163 | DRSC26527
